According to the supplement of paper PMC10735217:
Where a name gives a salt, the structure may show the parent alone. The list shows a part of the results. Repeats in this data set agree poorly, so a single value says little.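 In a drug-repurposing library screen, luminescence reads luciferase driven by eight TEAD-binding elements, stably integrated into human kidney-derived cells. Compounds scoring over five robust Z scores above the plate mean are called hits.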

Test system: HEK293A TEAD-LUC reporter
Test: TEAD-luciferase reporter activity (YAP activation), robust Z score vs plate; higher = stronger YAP/TEAD activation
Settings: 24 h

SMILES | TEAD-luciferase reporter activity (compound concentration: 200 nM) | TEAD-luciferase reporter activity (compound concentration: 2 uM) | TEAD-luciferase reporter activity (compound concentration: 10 uM)
O=C(Nc1c[nH]nc1-c1nc2cc(CN3CCOCC3)ccc2[nH]1)NC1CC1 | inactive: -0.682 | inactive: 1.98 | inactive: -2.57
COc1cc2ncnc(Nc3ccc(F)c(Cl)c3)c2cc1NC(=O)/C=C/CN1CCCCC1 [dacomitinib] | inactive: -0.613 | inactive: -0.983 | inactive: -0.0359
CN(Cc1ccc(S(=O)(=O)N2CCOCC2)cc1)c1ccc2c3c(cccc13)C(=N)N2 [Metesind glucuronate] | inactive: -0.815 | inactive: 0.834 | inactive: -0.66
C=C1CC[C@H]2[C@H](CN)[C@@H]([C@@]3(C)CC[C@H](O)C[C@@H]3CO)CC[C@]12C [Rosiptor] | inactive: -0.611 | – | inactive: 1.11
NCC(=O)N1C[C@H](NC(=O)c2ccccc2)C[C@H]1C(=O)O [danegaptide] | inactive: -0.934 | inactive: -0.887 | inactive: 0.788
CCN(CC)CCCN1C(=O)c2c(ccc3nc(-c4ccccc4)[nH]c23)C(C)(C)C1=O | inactive: -0.896 | inactive: 1.97 | inactive: 2.6
Cn1nnc2ccc([C@@H](c3ccc(Cl)cc3)n3cncn3)cc21 | inactive: -0.352 | inactive: -0.859 | inactive: 2.83
CN(C)CCc1c[nH]c2ccc(C[C@@H]3COC(=O)N3)cc12 [zolmitriptan] | inactive: -2.05 | inactive: 0.199 | inactive: 0.538
O=C(NCC(F)F)c1ccc(-n2[nH]c3c(nnc4c(F)cccc43)c2=O)cc1 | inactive: 4.76 | inactive: -1.12 | inactive: 2.49
CCOC(=O)C(C)(CC)Oc1ccc(Cc2ccc(Cl)cc2)cc1 (stereo not drawn) | inactive: 0.292 | inactive: -0.722 | inactive: -0.831
CC(C)(C)Cn1c(N)nc2ccc(-c3[nH]c(C(C)(C)C)nc3-c3ccc(F)cc3)nc21 | inactive: -0.997 | inactive: -1.34 | inactive: 1.88
O=NN(CCCl)C(=O)NC1CCCCC1 [lomustine] | – | inactive: -1.33 | –
O=NN(CCCl)C(=O)NC1CCCCC1 | inactive: 0.449 | – | inactive: -2.25
Cc1nnc(-c2ccc(-c3ccc(N4C[C@H](C(N)=O)OC4=O)cc3)cn2)s1 | inactive: -0.848 | inactive: 1.3 | inactive: 2.62
CCC1(O)CC(OC2CC(N(C)C)C(OC3CC(O)C(OC4CCC(=O)C(C)O4)C(C)O3)C(C)O2)c2c(cc3c(c2O)C(=O)c2c(O)cccc2C3=O)C1C(=O)OC (stereo not drawn) [aclarubicin] | inactive: 1.63 | active: 6.71 | active: 39
CCSC1Oc2cc(O)ccc2C=C1c1ccc(O)cc1 (stereo not drawn) | inactive: -1.53 | – | inactive: -0.299
C#C[C@]1(O)CC[C@H]2[C@@H]3CCC4=CC(=O)CC[C@@H]4[C@H]3CC[C@@]21C [19-Norethindrone] | inactive: -1.59 | – | inactive: -0.16

SMILES | TEAD-luciferase reporter activity (compound concentration: 200 nM) | TEAD-luciferase reporter activity (compound concentration: 2 uM) | TEAD-luciferase reporter activity (compound concentration: 10 uM)
C#C[C@]1(O)CC[C@H]2[C@@H]3CCC4=CC(=O)CC[C@@H]4[C@H]3CC[C@@]21C [Norethisterone] | – | inactive: -0.894 | –
CNC(=O)c1ccccc1Nc1nc(Nc2ccc3c(c2OC)CCC[C@H](N2CCN(CCO)CC2)C3)ncc1Cl | inactive: -2.04 | inactive: -1.97 | inactive: 0.942
NS(=O)(=O)c1cc2c(cc1C(F)(F)F)NCNS2(=O)=O [Hydroflumethiazide] | – | inactive: -0.0317 | –
NS(=O)(=O)c1cc2c(cc1C(F)(F)F)NCNS2(=O)=O | inactive: 0.389 | – | inactive: -0.391
CC(C)(CCc1ccccc1)NCC(O)c1ccc2c(c1)CCC(=O)N2 (stereo not drawn) | inactive: -0.0218 | inactive: -0.958 | inactive: 4.9
CCN(c1cc(-c2ccc(CN3CCOCC3)cc2)cc(C(=O)NCc2c(C)cc(C)[nH]c2=O)c1C)C1CCOCC1 [tazemetostat] | inactive: -0.913 | inactive: -1.03 | inactive: -1.3
N#Cc1ccccc1CN1CCSC1=O | inactive: -1.11 | inactive: -0.898 | inactive: 3.39
OC[C@H]1O[C@@H](Oc2cc3c(O)cc(O)cc3[o+]c2-c2cc(O)c(O)c(O)c2)[C@H](O[C@@H]2OC[C@@H](O)[C@H](O)[C@H]2O)[C@@H](O)[C@@H]1O [Delphinidin-3-sambubioside] | inactive: -0.789 | inactive: 3.43 | inactive: -0.429
CC(C)NCC(O)COc1cccc2sncc12 (stereo not drawn) | inactive: -0.518 | inactive: 0.0582 | inactive: -0.24
O=C([O-])c1cccc(/C=C2/C[C@@H]3[C@@H](/C=C/[C@@H](O)C4CCCCC4)[C@H](O)C[C@@H]3O2)c1 [Taprostene sodium salt] | inactive: -0.0559 | inactive: -0.167 | inactive: 0.0463
COCc1nnc(-c2ccc[n+]([O-])c2)n1-c1c(Cl)c(Cl)cc2c1=NC(=O)C(=O)N=2 | inactive: 0.942 | inactive: -0.699 | inactive: 0.834
CC[C@H](C)[C@H](N)C(=O)n1nc(C)c2c(Cl)c3cc(OC)ccc3nc21 | inactive: 3.13 | inactive: -1.26 | inactive: -1.93
CC(C)c1onc(-c2c(Cl)cccc2Cl)c1COc1ccc(-c2ccc3c(C(=O)O)cccc3c2)cc1 | inactive: -0.413 | inactive: -0.756 | inactive: 2.03
COC1CC(OC2C(C)C(=O)OC(C)C(C)C(O)C(C)C(=O)C3(CO3)CC(C)C(OC3OC(C)CC(N(C)C)C3O)C2C)OC(C)C1O (stereo not drawn) | inactive: 0.176 | inactive: -0.71 | inactive: -1.05
C[C@]12C=CC(=O)C=C1CC[C@@H]1[C@@H]2[C@@H](O)C[C@@]2(C)[C@H]1C[C@H]1O[C@@H](C3CCCCC3)O[C@]12C(=O)CO [Desisobutyrylciclesonide] | active: 8.77 | inactive: 0.146 | inactive: -0.0684
CCC1=NC(NC(=O)Nc2cccc(C)c2)C(=O)N(CC(=O)C2CCCCC2)c2c(C)cccc21 (stereo not drawn) | inactive: -0.434 | inactive: -0.215 | inactive: -0.332

Single records (already shown). Values in the order: TEAD-luciferase reporter activity (compound concentration: 200 nM) | TEAD-luciferase reporter activity (compound concentration: 2 uM) | TEAD-luciferase reporter activity (compound concentration: 10 uM)
CC[C@H](C)[C@H](N)C(=O)n1nc(C)c2c(Cl)c3cc(OC)ccc3nc21 as listed: inactive: 3.13 | inactive: -1.26 | inactive: -1.93
NS(=O)(=O)c1cc2c(cc1C(F)(F)F)NCNS2(=O)=O as listed: inactive: 0.389 | – | inactive: -0.391
